Values quoted from earlier work in patent US20230301966A1, “METHOD OF ENHANCING 5-HYDROXYTRYPTOPHAN (5-HTP) EXPOSURE” (Evecxia Therapeutics, Inc., priority 2021, published 2023).
Some entries share one result that the patent states for a list of compounds.

Conditions: known value; cited from earlier work

N[C@@H](Cc1ccc(O)c(O)c1)C(=O)O [L-DOPA]
T½: 1 to 2 h
